Data reported in PMC4046919.
No constants are given. Whether binding was seen depends on the method and setting. In cells and extracts the contact can be indirect. For some assays here: Binding can be weak; no strength is given.

Chains of the proteins cited; added tags and fusions are not shown. Lines headed by an entry give the natural chain unless they say otherwise; changes in a name come on top.
UniProt Q9WTI7: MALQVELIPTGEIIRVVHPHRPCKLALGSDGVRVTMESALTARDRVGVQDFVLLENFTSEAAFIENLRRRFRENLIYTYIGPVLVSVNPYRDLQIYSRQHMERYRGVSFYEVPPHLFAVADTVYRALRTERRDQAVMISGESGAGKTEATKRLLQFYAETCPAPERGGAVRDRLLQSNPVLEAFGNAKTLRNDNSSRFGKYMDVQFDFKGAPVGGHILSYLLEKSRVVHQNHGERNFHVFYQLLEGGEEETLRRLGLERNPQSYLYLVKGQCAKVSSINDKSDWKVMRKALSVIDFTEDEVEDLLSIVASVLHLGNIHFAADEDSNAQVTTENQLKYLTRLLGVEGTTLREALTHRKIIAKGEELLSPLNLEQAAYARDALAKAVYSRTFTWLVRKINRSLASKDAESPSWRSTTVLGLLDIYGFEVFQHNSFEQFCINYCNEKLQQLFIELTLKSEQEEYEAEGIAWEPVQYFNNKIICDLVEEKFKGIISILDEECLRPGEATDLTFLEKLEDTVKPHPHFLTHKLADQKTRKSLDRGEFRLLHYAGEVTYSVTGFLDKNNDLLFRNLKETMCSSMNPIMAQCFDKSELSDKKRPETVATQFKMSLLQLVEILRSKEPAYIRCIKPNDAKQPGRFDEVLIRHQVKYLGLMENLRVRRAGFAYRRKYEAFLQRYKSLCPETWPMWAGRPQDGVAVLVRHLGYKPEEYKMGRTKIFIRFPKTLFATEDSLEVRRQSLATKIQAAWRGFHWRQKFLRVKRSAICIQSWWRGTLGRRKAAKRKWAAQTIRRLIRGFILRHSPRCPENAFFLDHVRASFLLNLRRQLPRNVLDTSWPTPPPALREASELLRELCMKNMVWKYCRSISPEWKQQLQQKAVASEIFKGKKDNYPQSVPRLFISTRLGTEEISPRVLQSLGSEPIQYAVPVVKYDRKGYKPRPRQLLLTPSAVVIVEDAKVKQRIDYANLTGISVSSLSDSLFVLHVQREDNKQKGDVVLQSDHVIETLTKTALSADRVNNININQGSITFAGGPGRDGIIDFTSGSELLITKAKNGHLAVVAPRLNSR
UniProt P49841: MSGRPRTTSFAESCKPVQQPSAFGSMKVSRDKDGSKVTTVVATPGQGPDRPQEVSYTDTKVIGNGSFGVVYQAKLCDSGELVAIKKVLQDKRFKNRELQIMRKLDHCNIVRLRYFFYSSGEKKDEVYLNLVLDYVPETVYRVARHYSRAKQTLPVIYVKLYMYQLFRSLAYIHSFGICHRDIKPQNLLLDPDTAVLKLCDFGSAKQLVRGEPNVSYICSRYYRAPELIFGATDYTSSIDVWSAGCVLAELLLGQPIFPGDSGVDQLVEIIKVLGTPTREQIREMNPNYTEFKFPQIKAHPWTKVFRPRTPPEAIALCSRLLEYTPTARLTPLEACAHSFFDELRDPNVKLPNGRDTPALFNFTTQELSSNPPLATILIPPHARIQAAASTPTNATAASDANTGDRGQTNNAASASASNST

What was measured:
[1] = molecular target: V5-tagged NM1 mutant with impaired actin binding function (V5-RK605AA NM1) (UniProt Q9WTI7); assay: co-IP; total lysates of HEK293T cells stably expressing V5-tagged NM1 constructs; anti-V5 antibody and Protein G Sepharose; beads washed with 1X PBS, 1 mM PMSF, 0.2% NP-40; endogenous GSK3β detected on immunoblots with CGR11
[2] = molecular target: V5-tagged NM1 deletion construct that lacks IQ motifs (V5-ΔIQ NM1) (UniProt Q9WTI7); assay: as above

Substance: glycogen synthase kinase (GSK) 3β, endogenous, human (from UniProt P49841 1-420) (enzyme)
- binding [1]: no binding
- binding [2]: binds
